The text below walks through data of PubChem BioAssay AID1487 (National Center for Advancing Translational Sciences (NCATS), 2009).

This assay is described as follows: qHTS Assay for Modulators of Lamin A Splicing. Conditions: HeLa LMNA splicing GFP/RFP minigene ratio, 48 h. The method, boiled down: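 S3 HeLa stable clones carrying a lamin A-EGFP splicing minigene plus DsRed2 were seeded at 600 cells/well in Opti-MEM with 2% FBS, pin-dosed and incubated 48 h at 37°C. Acumen cytometry (488 nm) gave the GFP/RFP total-intensity ratio.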

Setting [1] is: measured here: GFP splicing reporter channel.
[2] abbreviates: measured here: RFP viability control channel.

“And” between values parts separate entries of the source, which are not always exact repeats. Equal values may be shown once. The list shows a part of the results. Shown are side measurements of this screen, not its main read-out; they come without a call. Most of these compounds were active or inconclusive in the main read-out, so they are no random draw. The note in brackets gives the kind of curve behind each potency; many fits are weak.

As for `CCN(CCCCOC(=O)c1ccc(OC)c(OC)c1)C(C)Cc1ccc(OC)cc1` (configuration not stated), the AC50 – broadly, the concentration at which the activity in the assay is half-maximal – runs as follows: under setting [1], 22.4 µM [falling, single point]; under setting [2], 0.501 µM [falling, partial curve, poor fit].
`S=C(NCC1CCCO1)Nc1ccc(Cl)c(Cl)c1` (configuration not stated): the AC50 under setting [2] was 11.2 µM [rising, partial curve, poor fit].
Still for that read-out and setting: next, `Cc1cccc(Cn2cnc3c(N)c(C)c(C)cc32)c1`: 35.5 µM [falling, single point].
In the case of `Cc1cc(C)c2nc(NNC(=O)c3ccc(S(=O)(=O)N4CCCC(C)C4)cc3)sc2c1` (configuration not stated), the AC50 reads like this: under setting [1], 31.6 µM [falling, single point]; under setting [2], 14.1 µM [rising, single point].
In the case of `CC(=O)Nc1ccc(Nc2ccc(S(=O)(=O)C(F)(F)F)cc2[N+](=O)[O-])cc1`, the AC50 under setting [2] was 20 µM [rising, single point].
Turning to `CCSc1nnc(NC(=O)C2CCN(S(=O)(=O)c3cc(C(F)(F)F)ccc3Cl)CC2)s1`, the AC50 reads like this: under setting [1], 20 µM [rising, partial curve, poor fit]; under setting [2], 22.4 µM [rising, partial curve].
Turning to `O=C(NCC(c1ccco1)S(=O)(=O)c1cccs1)c1ccc(C(F)(F)F)cc1` (configuration not stated), the concentration at half-maximal activity (AC50) under setting [1] was 0.501 µM [rising, full curve, poor fit].
Still for that read-out and setting: next, `S=C(NCc1ccco1)Nc1ccc(N2CCOCC2)cc1`: 4.47 µM [falling, partial curve, poor fit].
For the molecule `COC(=O)c1sc2ccccc2c1NC(=O)c1coc2ccccc2c1=O`, the AC50 under setting [2] was 0.501 µM [rising, full curve, poor fit].
Same read-out and setting: the value for `Cc1[nH]c2ccccc2c1/C=N/NC(=S)NC(C)C` was 14.1 µM [rising, single point].
As to `Cc1ccc(NC(=S)N(CCCN2CCOCC2)Cc2ccccn2)cc1Cl`, the AC50 was 15.8 µM [rising, single point] under setting [1] and 35.5 µM [rising, single point] under setting [2].
Regarding `N/C(=N\OC(=O)/C=C/c1ccccc1Cl)c1ccccn1`, the AC50 reads like this: under setting [1], 5.62 µM [rising, partial curve, poor fit]; under setting [2], 5.62 µM [rising, single point].
As to `O=C(Nc1ccc(F)cc1)C1C(c2ccccc2)C1(Cl)Cl` (configuration not stated), the AC50 is 20 µM [rising, single point] under setting [1] and 22.4 µM [rising, single point] under setting [2].
Consider `O=C(Nc1nccs1)c1cc(S(=O)(=O)N2CCOCC2)c(Cl)cc1Cl`, for which the AC50 under setting [2] was 31.6 µM [rising, single point].
On to `N=c1c2c(n(Cc3ccc(F)cc3)c3c1CCC3)CCC2`, for which the AC50 under setting [2] is 1.58 µM [rising, full curve].
For `Cc1ccc(-c2csc3nc(CN(C)Cc4ccccc4)[nH]c(=O)c23)cc1`, the half-maximal activity concentration (AC50) under setting [2] is 6.31 µM [rising, partial curve].
The same measure, in the same setting: next, `O=C(CCS(=O)(=O)c1ccccc1)Nc1nc2c(s1)CCCC2`: 5.62 µM [rising, single point]; `O=C(CSc1nnc(-c2ccccc2)c(-c2ccccc2)n1)Nc1ncc(Cl)cc1Cl`: 35.5 µM [rising, single point].
On to `CCN(CC)CCOCCOC(=O)C1(c2ccccc2)CCCC1`, for which the half-maximal activity concentration (AC50) runs as follows: under setting [1], 355 nM [rising, single point] and 7.94 µM [rising, partial curve, poor fit]; under setting [2], 14.1 µM [falling, single point] and 11.2 µM [rising, partial curve, poor fit].
Consider `C=CCN1C(=O)/C(=c2\sc3nc(=O)c(Cc4ccccc4)nn3c2=O)c2ccccc21`, for which the AC50 reads like this: under setting [1], 12.6 µM [falling, single point]; under setting [2], 14.1 µM [falling, single point].
In the case of `CCN(CCNS(=O)(=O)c1ccc2[nH]c(=O)sc2c1)c1ccccc1`, the AC50 under setting [2] is 17.8 µM [rising, partial curve].
`CS(=O)(=O)Nc1ccc(C2=NN(C(=O)c3ccco3)C(c3cccc(F)c3)C2)cc1` (configuration not stated): the AC50 under setting [1] was 0.0112 µM [rising, partial curve, poor fit].
Same read-out and setting: next, `O=C(Nc1ccccc1)N(C1=NCCC1)c1ccc(OC(F)F)cc1`: 14.1 µM [rising, single point].
Regarding `COc1ccc(OCCn2c(=N)n(CCO)c3ccccc32)cc1`, the AC50 reads like this: under setting [1], 0.398 µM [rising, full curve, poor fit]; under setting [2], 0.224 µM [rising, full curve].
In the case of `c1ccc(-c2nnc(N3CCOCC3)nc2-c2ccccc2)cc1`, the AC50 reads like this: under setting [1], 20 µM [rising, partial curve, poor fit]; under setting [2], 22.4 µM [rising, single point].
Consider `C[C@@H]1C[C@H]2[C@@H]3CCC4=CC(=O)C=C[C@]4(C)[C@@]3(F)[C@@H](O)C[C@]2(C)[C@H]1C(=O)CO`, for which the concentration at half-maximal activity (AC50) was 0.0224 µM [falling, full curve, poor fit] under setting [1] and 0.00251 µM [falling, full curve, poor fit] under setting [2].
Turning to `CCOC(=O)CN1C(=O)CCSc2ccc(Cl)cc21`, the AC50 reads like this: under setting [1], 11.2 µM [falling, partial curve]; under setting [2], 11.2 µM [falling, partial curve].
Consider `CCC(=O)C1=C(c2ccccc2)N(C(=O)CC)n2c(nnc2C2CCCCC2)S1`, for which, under setting [2], the AC50 was 35.5 µM [rising, single point].
For `CNc1nc(SC)nc2ccccc12`, the half-maximal activity concentration (AC50) is 15.8 µM [falling, partial curve, poor fit] under setting [1] and 15.8 µM [falling, partial curve] under setting [2].
As for `Cc1ccc(NC(=O)Cn2nc(C)c(S(=O)(=O)N(C)C)c2C)cc1`, the AC50 under setting [1] is 4.47 µM [falling, single point].
In the case of `COc1ccc(C(C)=O)cc1CSc1nc2cc(Cl)ccc2o1`, under setting [2], the AC50 is 31.6 µM [rising, single point].
Take `O=C(Nc1ccccc1[N+](=O)[O-])c1csnn1`: under setting [1], the AC50 is 5.01 µM [falling, partial curve, poor fit].
Turning to `COC(=O)c1c(-c2ccccc2)csc1NC(=O)C1CC=CCC1C(=O)O` (configuration not stated), the AC50 under setting [2] was 11.2 µM [rising, partial curve, poor fit].
In the case of `CCOc1ccc(-n2c(SCC(=O)N3CCCc4ccccc43)nc3c([nH]c4ccccc43)c2=O)cc1`, the AC50 under setting [1] is 6.31 µM [falling, partial curve, poor fit].
